Results reported in PubChem BioAssay AID493014 (National Center for Advancing Translational Sciences (NCATS), 2011).
This is one part of the list. These are further read-outs of the screen, such as a control signal, another cell line or another target. No call is given for them. The list favours compounds with an active or inconclusive main result. Words in brackets tell the shape of the fitted curve; partial curves, single points and poor fits give uncertain potencies.

Assay: qHTS Assay to Find Inhibitors of Chronic Active B-Cell Receptor Signaling
Details: ABC-DLBCL IkBa-CBG/CBR reporter, luminescence ratio (green luciferase fused to IkBa over red control in TMD8 lymphoma cells), 4 h
How it was run: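 Cell line TMD8 (human ABC DLBCL), stably expressing tet-inducible CBG68-IkBa fusion and CBR; IMDM/0.5% FBS; cpd up to 46 uM; dox induction, 4 h, 37C/5% CO2; dual luminescence; green/red ratio; MG132 control.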

[1] = measured here: CBR red luminescence, cell number
[2] = measured here: IkBa-CBG green luminescence

Row | Structure (SMILES) | AC50 [1] | AC50 [2]
1 | Cc1ccc(C)c(N2CCN(C(=O)C3CCN(c4nc(C)cc(C)n4)CC3)CC2)c1 | 32.6 µM [falling, single point] | –
2 | O=[N+]([O-])c1ccc(/C=C2\CCC(C3=CCCC3)=C2N2CCOCC2)cc1 | 16.4 µM [falling, partial curve] | –
3 | C#CCOCCOCCOCCNc1nc(N2CCN(C(=O)CCCCCCCCCCNC(=O)Cn3cc(CCCCCN)nn3)CC2)nc(N2CCN(C(=O)CCCCCCCCCCNC(=O)[C@@H](CCC(=O)O)n3cc(CCCCCN)nn3)CC2)n1 | 13 µM [rising, partial curve, poor fit] | –
4 | CC1=C(C(=O)OCC(C)C)C(c2ccsc2)NC(=O)N1 (stereo unspecified) | 2.91 µM [falling, full curve] | –
5 | O=C(NCCc1ccccc1)C1CCN(Cc2cc3ccccc3n2Cc2ccccc2)CC1 | 11.2 µM [falling, single point] | –
6 | O=[N+]([O-])c1ccccc1Nc1c2ccccc2nc2ccccc12 | 20 µM [rising, single point] | –
7 | O=C(/C=C/Sc1ccccc1)c1ccc(Cl)cc1 | 16.4 µM [falling, partial curve] | 14.6 µM [falling, partial curve, poor fit]
8 | OCCc1c[nH]c2ccc(C(F)(F)F)cc12 | 14.1 µM [rising, partial curve, poor fit] | –
9 | C#CCN1C(=O)S/C(=C/C=C/c2ccc(N(C)C)cc2)C1=O | 9.2 µM [rising, partial curve, poor fit] | –
10 | CCSc1ccccc1C(=O)N1CCN(Cc2ccc3c(c2)OCO3)CC1 | 18.4 µM [falling, partial curve, poor fit] | –
11 | CCc1sc(C(=O)N2CCN(CC(=O)Nc3cccc(F)c3)CC2)cc1C | 0.651 µM [rising, partial curve, poor fit] | –
12 | NS(=O)(=O)c1cccc(NC(=O)COC(=O)c2ccccc2SCC(=O)N2CCCC2)c1 | 8.2 µM [rising, partial curve, poor fit] | –
13 | Cc1ccc(S(=O)(=O)N2CCOCC2)cc1C(=O)N1CCc2ccccc21 | 23.1 µM [rising, single point] | –
14 | CCOc1ccc(CNC(=O)CCCC(=O)n2nc(C)c3ccccc32)cc1 | 3.16 µM [falling, partial curve] | –
15 | Nc1ccc2c(c1)N=[N+]([O-])c1cc(N)ccc1C2 | 35.5 µM [rising, single point] | –
16 | COc1ccccc1NC(=O)N1CCc2[nH]c3ccc(F)cc3c2C1 | 4.47 µM [falling, full curve] | –
17 | COc1cc(S(=O)(=O)N2CCOCC2)ccc1NC(=O)COC(=O)/C=C/c1cc(OC)c(OC)c(OC)c1 | 23.1 µM [rising, single point] | –
18 | O=C(N/N=C/c1ccc(COc2ccc(Br)cc2)o1)c1ccc2c(c1)OCO2 | 10 µM [falling, partial curve, poor fit] | –
19 | C=CCc1ccc(OCCOCCNCCOC)c(OC)c1 | 4.47 µM [falling, full curve, poor fit] | –
20 | O=C(COC(=O)c1cc(Br)ccc1O)Nc1cc(S(=O)(=O)N2CCCC2)ccc1Cl | 25.1 µM [falling, single point] | –
21 | O=C(Nc1ccccc1)C1=C[C@H](c2ccc3c(c2)OCO3)C[C@H](OCCCCO)O1 | 6.31 µM [falling, partial curve] | –
22 | CCCOc1ccccc1/C=C1\SC(N)=NC1=O | 11.2 µM [rising, partial curve, poor fit] | –

Row | Structure (SMILES) | AC50 [1] | AC50 [2]
23 | CCOC(=O)C1CCCN(c2c(N3CCc4ccccc4C3)c(=O)c2=O)C1 (stereo unspecified) | 9.2 µM [rising, single point] | –
24 | CCN(CC)C(=O)c1sc(NC(=O)c2ccc3c(c2)OCO3)c(C#N)c1C | 0.092 µM [falling, full curve, poor fit] | –
25 | Cc1ccc2nc(NNC(=O)c3ccc(S(=O)(=O)N4CCc5ccccc5C4)cc3)sc2c1 | 29.1 µM [rising, single point] | –
26 | COc1ccccc1NC1=C(N2CCCCC2)C(=O)c2ccccc2C1=O | 25.9 µM [falling, partial curve, poor fit] | –
27 | CCOC(=O)C1=C(COC(=O)c2ccc3ccccc3c2O)NC(=O)NC1C (stereo unspecified) | 29.1 µM [falling, single point] | –
28 | CS(=O)(=O)N1CCN(c2ccccc2NC(=O)Cc2ccc(Cl)cc2)CC1 | 3.26 µM [falling, single point] | –
29 | C/C(=N\OC(=O)c1c(-c2c(F)cccc2Cl)noc1C)c1nccs1 | 6.31 µM [rising, single point] | –
30 | COc1ccc(C)cc1N(C(=O)c1cccc(F)c1)c1nc2ccccc2s1 | 14.6 µM [falling, single point] | –
31 | N#Cc1ccccc1NC(=O)COc1ccccc1C(=O)Nc1ccccc1 | 1.64 µM [rising, partial curve, poor fit] | –
32 | CCCCN(C(=O)CSc1nc2ccccc2s1)c1c(N)n(CCCC)c(=O)[nH]c1=O | 13 µM [rising, partial curve, poor fit] | –
33 | CCn1c(SCC(=O)Nc2nccs2)nnc1-c1ccccc1 | 2.06 µM [falling, single point] | –
34 | O=C(N1CCOCC1)N1CCN(S(=O)(=O)N2CCCCC2)CC1 | 29.1 µM [falling, single point] | –
35 | O=C1c2cc(N3CCCC3)c([N+](=O)[O-])cc2C(=O)N1c1ccccc1 | 29.1 µM [rising, partial curve, poor fit] | –
36 | COc1ccc(C(CC(=O)NCc2ccco2)c2ccc(F)cc2)cc1 (stereo unspecified) | 35.5 µM [falling, single point] | –
37 | COc1ccc(/C=N/Nc2ncnc3sc4c(c23)CCCC4)cc1O | 13 µM [falling, partial curve, poor fit] | –
38 | COc1ccc2c(c1OC)C(=O)N(c1ccccc1)C2=O | 5.62 µM [rising, single point] | –
39 | O=C(CSc1nc2ccccc2c(=O)n1-c1ccc(Cl)cc1)N/N=C/C=C/c1ccccc1[N+](=O)[O-] | 2.59 µM [falling, full curve] | –
40 | COc1ccc(N2CS(=O)CC2=O)cc1 (stereo unspecified) | 35.5 µM [rising, single point] | –
41 | O=C(Cn1cnc2ccccc2c1=O)Nc1cccc(-c2nnc3n2CCCCC3)c1 | 32.6 µM [falling, single point] | –
42 | O=C(NCc1ccco1)C(c1cccs1)N(C(=O)C1COc2ccccc2O1)c1cccc(O)c1 (stereo unspecified) | 29.1 µM [falling, single point] | –
43 | CC(C)c1ccccc1NC(=O)COC(=O)Cc1c[nH]c2ccccc12 | 14.6 µM [falling, partial curve, poor fit] | –
44 | COC1=C/C(=C/c2c(N)n3cc(C)sc3nc2=O)C=CC1=O | 32.6 µM [falling, single point] | –

Row | Structure (SMILES) | AC50 [1] | AC50 [2]
45 | Cc1c(C(=O)O)cnc2cc(-c3ccc(Cl)cc3)nn12 | 18.4 µM [falling, partial curve] | –
46 | NC(=O)c1cc(Br)cc(C2CCCCC2)c1O | 12.6 µM [rising, partial curve] | –
47 | NCC(c1ccccc1)(c1ccccc1)c1ccccc1 | 32.6 µM [falling, single point] | –
48 | O=C(N/N=C/c1ccc2c(c1)OCO2)c1ccc(Br)o1 | 7.31 µM [falling, partial curve] | –
49 | CCC(=O)N1CCN(c2ccc(NC(=O)c3cc4ccccc4o3)cc2)CC1 | 29.1 µM [falling, single point] | –
50 | CCNC(=S)NNc1nncc2ccccc12 | – | 25.1 µM [falling, single point]
51 | COc1ccnc(Oc2ccc3ccccc3c2)c1C#N | 3.55 µM [rising, partial curve, poor fit] | –
52 | C/C(=N\O)c1cccc(Br)c1 | 7.94 µM [rising, partial curve, poor fit] | –
53 | Cc1noc(C)c1CN1C(=O)NC2(CCCCCCC2)C1=O | 10.3 µM [falling, partial curve, poor fit] | –
54 | O=C(CSc1nnc(CNc2ccc(F)cc2)o1)c1ccccc1 | 1.41 µM [falling, full curve] | 1.41 µM [rising, full curve, poor fit]
55 | COc1cc(CCc2ccccc2)c(C(=O)O)c(O)c1C/C=C(/C)CCC=C(C)C | 8.2 µM [rising, partial curve, poor fit] | –
56 | CCN(CC)CCNc1ccnc2cc(Cl)ccc12 | 14.6 µM [falling, single point] | –
57 | COc1ccc(OC)c(-c2nnc(-c3ccc(C)o3)o2)c1 | 0.259 µM [falling, full curve, poor fit] | –
58 | CCN(CC)Cc1cc(C(C)=O)ccc1OCC(C)C | 3.16 µM [falling, partial curve, poor fit] | –
59 | O=C(NCc1cccnc1)c1ccc(COc2cccc3ccccc23)o1 | 22.4 µM [falling, single point] | –
60 | CCn1c(=O)c(-c2nc3ccccc3[nH]2)c(O)c2ccccc21 | 1 µM [falling, full curve, poor fit] | –
61 | O=C(O)c1ccc(CSc2nnc(-c3cccnc3)n2-c2ccc(Br)cc2)cc1 | 0.0891 µM [rising, full curve, poor fit] | –
62 | Cc1oc(C(=O)O)cc1COc1ccc2c(C)cc(=O)oc2c1 | 23.1 µM [falling, single point] | –
63 | O=C(Nc1cccc(F)c1)N1CC=C(c2ccc(Cl)cc2)CC1 | 29.1 µM [falling, single point] | –
64 | COc1cc2c(cc1OC)C(c1ccc(-c3cc(Cl)ccc3Cl)o1)=NCC2 | 0.13 µM [rising, full curve, poor fit] | –

Looked up by compound from the entries so far:
Row | Structure (SMILES) | AC50 [1] | AC50 [2]
58 | CCN(CC)Cc1cc(C(C)=O)ccc1OCC(C)C | 3.16 µM [falling, partial curve, poor fit] | –
64 | COc1cc2c(cc1OC)C(c1ccc(-c3cc(Cl)ccc3Cl)o1)=NCC2 | 0.13 µM [rising, full curve, poor fit] | –
51 | COc1ccnc(Oc2ccc3ccccc3c2)c1C#N | 3.55 µM [rising, partial curve, poor fit] | –
